The whole screen tested about 360,000 compounds, of which about 7,500 (2.1%) were called active. This list was built around the results that the source calls inconclusive (neither active nor inactive); the mix of calls is not that of the screen. Calls come from the whole dose curve; as a rule, active = well fitted inhibition curve with a large enough effect; inconclusive = small, poorly fitted or top-dose-only effect, or effect the other way; inactive = flat fitted curve, though single readings scatter. Where the call is inconclusive, the potency comes from a doubtful curve fit.
experiment: Nrf2 qHTS screen for inhibitors; settings: A549 ARE-Fluc reporter, luciferase luminescence, 18-24 h; series mostly up to 46 µM; note: nearly all actives have a fitted effect of over 60% in size
Method in brief: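 Quantitative HTS in A549 cells stably bearing an antioxidant response element-firefly luciferase construct. Inhibition of Nrf2-driven transcription was scored by luminescence after 18-24 h of compound exposure at 37 °C.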
Potency is the fitted concentration of half-maximal effect.

SMILES	Potency
CCOC(=O)c1nnn(-c2nc(OC)nc(N3CCCC3)n2)c1-c1ccccc1	inconclusive: 29.1 µM [falling, partial curve, poor fit]
CCSc1ncc(Cl)c(C(=O)N(Cc2ccccc2)Cc2ccco2)n1	inconclusive: 29.1 µM [falling, single point]
CCCOc1ccc(NC(=O)CC2C(=O)N(c3ccc(C)cc3)C(=O)N2C2CCCC2)cc1 (stereo not given)	inactive
O=C(CN1CCN(Cc2ccccc2)CC1)N/N=C\C=C/c1ccco1	inconclusive: 3.66 µM [activator, full curve]
C/C(CC(=O)Nc1ccc(Cl)cc1Cl)=N\NC(=O)C(=O)N1CCCC1	inconclusive: 2.31 µM [activator, partial curve, poor fit]
Cc1nn(-c2ccc(F)cc2)c(-n2cccc2)c1C(=O)N1CCN(c2ccccc2F)CC1	inactive
Cc1cccc(C)c1NC(=O)c1c[nH]c2ccccc12	inconclusive: 2.59 µM [activator, full curve]
C=CCn1c(=O)n2ncnc2c2c3c(sc21)CCCC3	inconclusive: 25.9 µM [falling, partial curve, poor fit]
Cc1ccc(N(CC(=O)Nc2cc(C)cc(C)c2)S(=O)(=O)c2c(C)noc2C)cc1	active: 7.31 µM
C(=C\c1nc(N2CCCC2)c2ccccc2n1)/c1ccccc1	inconclusive: 16.4 µM [falling, single point]
Cc1c(NC(=O)c2cc3c(s2)-c2ccccc2OC3)cccc1[N+](=O)[O-]	inconclusive: 23.1 µM [falling, single point]
CCOc1ccc(C(=O)c2cn(Cc3ccccc3)c3c(F)cc(F)cc3c2=O)cc1	inconclusive: 23.1 µM [falling, partial curve, poor fit]
Cc1cccc(-n2nnc(C(=O)Nc3ccc(F)cc3)c2N)c1	inconclusive: 5.8 µM [activator, partial curve]
Cc1ccc(Nc2nc3ccccc3[nH]2)nc1	inconclusive: 3.66 µM [activator, full curve]
COC(=O)[C@]1(Cc2ccccc2)N[C@H](CN(C)C(=O)Nc2ccc(C(F)(F)F)cc2)[C@@H]2C(=O)N(Cc3ccccc3)C(=O)[C@@H]21	inconclusive: 18.4 µM [falling, single point]
Cc1ccc(CNC(=S)Nc2cc(C)ccc2OC(F)F)cc1	inconclusive: 23.1 µM [falling, single point]
Fc1ccc(COc2ccc(Br)cc2CNCC2CCCO2)cc1 (stereo not given)	inconclusive: 7.31 µM [falling, partial curve, poor fit]
COc1cc(Cl)c(NC2=CC(=O)C(=O)c3ccccc32)c(OC)c1	inconclusive: 29.1 µM [falling, single point]
CCOc1ccc2nc(NC(=O)CS(=O)(=O)c3ccc(C)cc3)sc2c1	inconclusive: 29.1 µM [falling, partial curve, poor fit]
NC(=O)c1ccccc1NC(=O)/C=C/c1ccccc1	inconclusive: 2.06 µM [activator, full curve]

SMILES	Potency
COC(=O)c1c(C)oc2ccc(N(C(=O)Oc3ccccc3)S(=O)(=O)c3ccc(C(C)(C)C)cc3)cc12	active: 2.31 µM
c1ccc(-c2nnc(CN3CCN(C(c4ccccc4)c4ccccc4)CC3)o2)cc1	inconclusive: 20.6 µM [falling, partial curve, poor fit]
COc1cccc(/C=N/NC(=O)CNC(=O)c2ccc(S(=O)(=O)N3CCOCC3)cc2)c1OC	inconclusive: 16.4 µM [falling, single point]
O=c1oc(-c2cccs2)nc2sc3c(c12)CCCCC3	inconclusive: 1.3 µM [activator, full curve]
N#Cc1c(NC(=O)C2CCCO2)sc2c1CCCCC2 (stereo not given)	inconclusive: 9.2 µM [activator, partial curve]
Cc1ccc(NC(=O)C2CCCN(S(=O)(=O)c3c(C)n[nH]c3C)C2)cc1Cl (stereo not given)	inconclusive: 29.1 µM [falling, single point]
CCCn1nc(NC(=O)c2cccs2)c2cc3ccccc3nc21	active: 18.4 µM
O=c1nc(SCc2c(F)cccc2Cl)nc(-c2ccccc2)[nH]1	inactive
O=C(N/N=C1\C/C(=N\NC(=O)c2ccncc2)c2ccccc21)c1ccncc1	active: 7.31 µM
CCSc1nnc2c(n1)OC(c1sccc1C)N(C(C)=O)c1ccccc1-2 (stereo not given)	inconclusive: 23.1 µM [falling, single point]
O=C(NCc1cccc(F)c1)c1ccc2nc(N3CCCCC3)sc2c1	inconclusive: 8.2 µM [activator, partial curve]
CCC(C)(C)C1CCC2(CC1)NC(=O)N(CC(=O)N(C)Cc1ccc3c(c1)OCCO3)C2=O (stereo not given)	inconclusive: 9.2 µM [falling, partial curve, poor fit]
COc1ccc(Cn2c(=O)c3oc4ccccc4c3n(Cc3cccc(F)c3)c2=O)cc1	inconclusive: 18.4 µM [activator, single point]
Nc1nonc1-n1nnc(C(=O)N/N=C/c2ccc(OCc3ccccc3)cc2)c1COc1ccc(F)cc1	inconclusive: 29.1 µM [falling, single point]
O=[N+]([O-])c1ccc(C[n+]2cccc3c4ccccc4ccc32)cc1	active: 3.66 µM
COc1ccc(Br)cc1/C=N/NC(=O)c1ccco1	inconclusive: 5.8 µM [activator, full curve, poor fit]
Cn1c(-c2ccccc2)cnc1N	inconclusive: 3.26 µM [activator, full curve, poor fit]
CCCCS(=O)(=O)c1oc(-c2ccc(F)cc2)nc1S(=O)(=O)c1ccccc1	active: 20.6 µM
Cc1cn(C2OC(COC(=O)c3ccccc3)C(OC(=O)c3ccccc3)C2OC(=O)c2ccccc2)c(=O)[nH]c1=O (stereo not given)	inconclusive: 20.6 µM [falling, single point]
Cc1c(C(=O)NC2CCC(C)CC2)oc2ccccc12 (stereo not given)	inconclusive: 8.2 µM [activator, partial curve]

A draw from above in order of SMILES length, rising.
SMILES	Potency
C=CCn1c(=O)n2ncnc2c2c3c(sc21)CCCC3	inconclusive: 25.9 µM [falling, partial curve, poor fit]
COc1cc(Cl)c(NC2=CC(=O)C(=O)c3ccccc32)c(OC)c1	inconclusive: 29.1 µM [falling, single point]
CCOc1ccc2nc(NC(=O)CS(=O)(=O)c3ccc(C)cc3)sc2c1	inconclusive: 29.1 µM [falling, partial curve, poor fit]
